The target of the experiment is T1, GST-Adh recombinant protein (E. histolytica).
T1 sequence: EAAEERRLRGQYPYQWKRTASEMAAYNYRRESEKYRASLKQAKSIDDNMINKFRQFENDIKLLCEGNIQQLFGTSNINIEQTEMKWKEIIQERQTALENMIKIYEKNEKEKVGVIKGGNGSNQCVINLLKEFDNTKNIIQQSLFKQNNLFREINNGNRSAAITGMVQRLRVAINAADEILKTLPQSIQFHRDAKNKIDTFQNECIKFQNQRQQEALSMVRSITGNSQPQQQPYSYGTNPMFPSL
The experiment in a line: affinity purification with mass spectrometry; GST-tagged bait (or GST control) bound to glutathione-Sepharose (200 μg) incubated with total trophozoite lysate (2 mg), 4 h, 4 °C; SDS-PAGE, silver stain, bands cut, nano UPLC-QToF; hits with reliability above 95%; only the target purified.

These are yes or no findings as the source states them, for the method shown. Binding seen in cells or lysates may run through a third protein. These calls come from enrichment with a bait or labelling near it, and not all partners need be listed. Sequences can lack the tags named with a protein.

B1: Malic enzyme (enzyme, UniProt A0A8U0WNY6 1-487)
chain: MAQLKADLSNLEECLPSTLSQEQRAVAKTQFYKELAEKVHKFYKGKIQIMPKCTLAGFNWFNAYYTPGVSRISTNIRDNNDSSLFYSLRGNFVGVVSDSTRVLGDGDVTPPGGLGVMEGKALLMKYLGGIDAVPICIDSKNKEGKNDPDAVIEFVQRIQHTFGAINLEDISQPNCYKILDVLRESCDIPVWHDDQQGTASVTLAGLLNALKLVKKDIHECRMVFIGAGSSNTTCLRLIVTAGADPKKIVMFDSKGSLHNGREDIKKDTRFYRKWEICETTNPSKFGSIAEACVGADVLISLSTPGPGVVKAEWIKSMGEKPIVFCCANPVPEIYPYEAKEAGAYIVATGRGDFPNQVNNSVGFPGILKGALIVRARKITDNMAIAASRALAEFAEKRGINPDNIIGTMDEPGIFPKEAADVAMQAIKDGVARVTDLTWQQVYDIAEHDIKEARESAQLLQDSKHIVDFPQETLNECLAYAINKVTGK
In the case of B1, the binding entry is recorded as “binds”.

B2: Pyruvate:ferredoxin oxidoreductase (enzyme, UniProt C4LTX6 1-1162)
chain: MQSVDGNQAAAYVSYALSDVSFIFPITPSSPMAENADVWSSQGRKNVFGQVVDVYEMESEAGASGAVHGGCAAGSLVSTYTCSQGLMLMIPNMIKIAGEHLPCVFHVTARALAGQALSIFGDHSDVMACRSTGFCLLSSHNVQQCHDLAIVAHLATLEASLPFMHFFDGFRTSHEIQKIHQLTYDQIKSLVDMKYVDRAHKRGLNPIHPSQRGTSQGPDVFFQAVEKSNADYLKVPEIVQKYMDKVGELTGRHYKIFEYYGAADAERVVVVMGAAVPVLEECVDYLMKSGEKVGVLSVHLYRPWSAKHFLEQLPKTVTKISVLDRTKEAGSFGEPLYLDVATTLLDAGKHIKCVGGRYGLGSKEFTPAMAKAVFDNLKNEEPKNHFTVGIEDDVTHMSLPIGENFNPIPEGTTQCMFWGLGSDGTVGANHDAIRIIGQNTDMYVQGYFSYDAHKSGGVTVSHLRFGQKPIKSQYLIQNADYTACHFPNYVKKYKLLDAAKPNSVFVLNCPWTGAELEAQLPGSLKRVIAEKQIKFYTIDAIKIGQEVKLGRRINMIMQTVFFKLANVIPFEKAIVLLKEAVQKTYGAKGPAIVKMNHDAIDKALDGLVEVKVPAEWANAPLETVTKIEAPEFVTDVLMPQLAMKGNELPVSKFAADGFMPMGTTKYEKRGIATKIPTWEASKCVQCNMCSLYCPHAAIRCFYLTPEESAKAPAEFVQIDGKAQQAGYKFRIQVSAMDCTGCEVCTTACPVKCLSMTPFEQVSEVESKNWEFAMTLSPKNSLSDRSNIKTTMIHQPYLEFSGACEGCNETALVKLITQLYGERTIIANATGCSSIWGATWGTNPYTVDGEGRGPAWGNSLFEDNAEYGFGMFKANEQRRLYLEQICKEAIAEGKLSNELKTLLEEWIAKKEDANESEKIYAAVKPLLAAEKDKSEVLGLIEQNSDMFVKISHWIVGGDGWAYDIGYNGVDHVLASGHNVNILVLDTEMYSNTGGQKSKATNLGAVVKFASSGCKRPKKDLGAIAMAYGDVYVASIALGANPAQAFKAFKEAESYNGVSLIIAYCPCKEQGVPLQKSIEEAKMAVNSGYWSLYRYDPRLVEQGKPGLQLDCSEVKGDLEAFLARENRFALLGRKDKETADKLHAQLKANIDKKLAHLKVVSKQA
Regarding B2, the binding entry was “binds”.

B3: Poly (ADP-ribose) glucohydrolase (enzyme, UniProt C4LY84 1-431)
chain: MENKIIQTSTLSIEKIRTAITKEFKTCQDVVEFFINQEEERTNKKINKGVGDGYEIALKSFYNKVHSLGVTKKSFEEYFQWFIGGLKNAMNKLINNNDGNLEKNQSTIYIPISKSGTPSTIQIKRWEIFGILACSFFNVQWDKKVERIGNLSFVYISTNSRISIQRLICIFAYFHVMIEMDEKTLQEIVTYERVIQKKPYDWEHNETPIKTYPFVSGGLEMSEMNVHVDFANKYLQIHKIVPSITQEELLFSVRPECLISLILFEVLLDNEAVLIKNTLHISLSEGYQQTFKWIGFCKNQILKQPNIILAIDSVINSCFGKENIDRDLNKCMIGFQCAGNKIATGQWGCGSFGNDQLLKMAQQYMVLSTLGLEASIHWMNFSRYNELNDYMEICKSKKMTVKDIYYILCSFDGDKNTFVDYFKQQVQSFHK
For B3, the binding result is given as “binds”.

B4: 60S ribosomal protein L14 (protein, UniProt C4LTQ0 1-121)
chain: MKTGPFASKLAVIVEILDHNRVLVDGPQAITGVPRQVVNLNTISLTSFVVNKVTRGMTHKKLCLRFTQDAIIKRLNKTATGKAIEKRILREKMTDFDKFQVSIINRKINAAAKIAVARKAH
For the molecule B4, the binding result is “binds”.

B5: Ribosomal protein L18a (protein, UniProt C4LXZ0 1-173)
chain: MKEYYITARCTDKAHNPNEIFRSRVFAPNYVVAKSKFWMMLKKQHKVKKINAELLQCQPIFEKNPTVVKNYQIFLRYVSAGGIHNITKQYRDVTRVGAVRQMYNDLASQYRTRQDKIQLISITTVGDKAVKNPVLHQFVGHHVKFPMVHCKPVIASKRFNLPIKAGKLTTKLC
For the molecule B5, the binding entry is “binds”.

B6: 20 kDa antigen (protein, UniProt C4M6Z9 1-210)
chain: MRARMVGPGSSSSNYKSTTDPCRFMGCGPSSSTSSGYRKGGNAAGPMASKGTWAATTDIGKTAAVGADTYEAGYRKGGNAAGPMASKGTWAATTDIGITAGVGADTYEAGYRKGGNAAGPMASKGTWEATTDIGKTAAVGADTYEAGYRRGADAAGPMASKGTWAATTDSGITAPCSGTEPIPDSYEAAAVLAEQRKLEEEAANAAAEQQ
B6: the binding entry is reported as “binds”.

B7: Fructose-1,6-bisphosphate aldolase (enzyme, UniProt C4LXD7 1-330)
chain: MAAKTVNYKELGLCNHKEMFEHAIKGGFAVPGFNFNNLEQMQAIIQACTEAKSPVILQVSKGAREYANATLLRNLAKGAVEYSKEIDPEHKGVPISLNLDHGANFQICKECVDNGFSNVMIDGSALPYEENVKLTKQVVEYAHKFGVTVEGELGVLSGVEDDVAAAEHVFTDPKDVEAFVKDTGVDALAISIGTSHGAYKFKPGMHPRIRLDILHEVEKRIPGFPIVLHGSSSVPQEWVAVINQYGGKLESAIGIPEDQIREAVKSAVCKVNIDSDGRLAMTGSIRRYLAEHPKDFDPRQYLGPARQALKELYLHKVSDKVLNSAGKSWY
Take B7: the binding result was “binds”.

For the origin of these results see PMC11277477.
